These are yes or no findings as the source states them, for the method shown. In cells and extracts the contact can be indirect. Some binding calls cover weakened binding; strength is not graded here. For some assays here: Tags and fused reporters may be left off the sequences shown.

The chains behind the UniProt entries cited, without tags or fusion partners.
UniProt P23771: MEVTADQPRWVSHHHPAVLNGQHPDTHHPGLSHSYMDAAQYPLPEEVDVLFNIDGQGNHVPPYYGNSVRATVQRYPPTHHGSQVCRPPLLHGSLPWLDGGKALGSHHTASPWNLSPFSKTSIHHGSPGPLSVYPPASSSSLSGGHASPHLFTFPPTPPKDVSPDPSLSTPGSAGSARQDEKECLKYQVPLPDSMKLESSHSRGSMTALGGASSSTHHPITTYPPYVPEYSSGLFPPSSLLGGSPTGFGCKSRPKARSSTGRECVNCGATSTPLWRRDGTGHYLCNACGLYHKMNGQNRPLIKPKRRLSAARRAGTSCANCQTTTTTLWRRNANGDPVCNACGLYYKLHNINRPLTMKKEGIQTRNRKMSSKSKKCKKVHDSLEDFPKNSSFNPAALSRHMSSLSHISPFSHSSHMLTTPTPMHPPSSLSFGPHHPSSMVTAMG

One experiment deals with GATA-3-HA (UniProt P23771). Put plainly: co-IP; exogenous co-immunoprecipitation: 293T cells 24 h after transfection with NR2F2-Flag and GATA-3-HA plasmids; lysate with 1 ug anti-HA or anti-Flag overnight at 4°C, protein A/G-plus agarose beads, 6 washes, western blot. For orientation: A western blot detects proteins with antibodies after separation by electrophoresis.
Experiment [1] addresses GATA-3 (endogenous, decidual CD4+ T cells) (human (endogenous in decidual CD4+ T cells)) (UniProt P23771). In words: co-IP; endogenous co-immunoprecipitation: decidual CD4+ T cells lysed in RIPA; 1 ug anti-GATA-3 or IgG overnight at 4°C, protein A/G beads, RIPA washes, western blot for NR2F2.

B1: NR2F2-Flag (protein, UniProt P24468 1-414)
chain: MAMVVSTWRDPQDEVPGSQGSQASQAPPVPGPPPGAPHTPQTPGQGGPASTPAQTAAGGQGGPGGPGSDKQQQQQHIECVVCGDKSSGKHYGQFTCEGCKSFFKRSVRRNLSYTCRANRNCPIDQHHRNQCQYCRLKKCLKVGMRREAVQRGRMPPTQPTHGQFALTNGDPLNCHSYLSGYISLLLRAEPYPTSRFGSQCMQPNNIMGIENICELAARMLFSAVEWARNIPFFPDLQITDQVALLRLTWSELFVLNAAQCSMPLHVAPLLAAAGLHASPMSADRVVAFMDHIRIFQEQVEKLKALHVDSAEYSCLKAIVLFTSDACGLSDVAHVESLQEKSQCALEEYVRSQYPNQPTRFGKLLLRLPSLRTVSSSVIEQLFFVRLVGKTPIETLIRDMLLSGSSFNWPYMAIQ
Consider B1, for which the binding entry in the experiment with GATA-3-HA is “binds”.

B2: NR2F2 (endogenous, decidual CD4+ T cells) (protein, UniProt P24468 1-414)
chain: MAMVVSTWRDPQDEVPGSQGSQASQAPPVPGPPPGAPHTPQTPGQGGPASTPAQTAAGGQGGPGGPGSDKQQQQQHIECVVCGDKSSGKHYGQFTCEGCKSFFKRSVRRNLSYTCRANRNCPIDQHHRNQCQYCRLKKCLKVGMRREAVQRGRMPPTQPTHGQFALTNGDPLNCHSYLSGYISLLLRAEPYPTSRFGSQCMQPNNIMGIENICELAARMLFSAVEWARNIPFFPDLQITDQVALLRLTWSELFVLNAAQCSMPLHVAPLLAAAGLHASPMSADRVVAFMDHIRIFQEQVEKLKALHVDSAEYSCLKAIVLFTSDACGLSDVAHVESLQEKSQCALEEYVRSQYPNQPTRFGKLLLRLPSLRTVSSSVIEQLFFVRLVGKTPIETLIRDMLLSGSSFNWPYMAIQ
Take B2: in experiment [1], the binding entry is recorded as “binds”.

(Values after article PMC8168462.)
